Data published in PubChem BioAssay AID2517 (National Center for Advancing Translational Sciences (NCATS), 2010).
“And” between values parts separate entries of the source, which are not always exact repeats. Equal values may be shown once. The whole screen tested about 350,000 compounds, of which about 1,200 (0.34%) were called active. Inconclusive results, whose numbers are uncertain, are shown with a selection of clear calls. The call rests on the fitted dose curve; in most records, active means well fitted inhibition curve with a large enough effect; inconclusive means small, poorly fitted or top-dose-only effect; inactive means no such curve, though single readings can be large or run the other way. A potency beside an inconclusive call is a rough fit, not a confirmed value. A structure can be active in one record and inactive in another.

By UniProt entry, the sequences of proteins in these tests, tags left out.
UniProt P27695, whole entry, looked up: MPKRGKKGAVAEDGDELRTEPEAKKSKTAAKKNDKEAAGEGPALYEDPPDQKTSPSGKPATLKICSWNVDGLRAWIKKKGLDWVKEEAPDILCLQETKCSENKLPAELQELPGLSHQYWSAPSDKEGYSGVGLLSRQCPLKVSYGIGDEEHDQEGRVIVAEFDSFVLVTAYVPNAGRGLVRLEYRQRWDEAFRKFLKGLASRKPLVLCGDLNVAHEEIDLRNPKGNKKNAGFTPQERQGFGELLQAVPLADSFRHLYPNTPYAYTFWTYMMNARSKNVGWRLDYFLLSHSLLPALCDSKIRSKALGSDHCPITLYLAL

What follows are compounds tested against DNA repair nuclease/redox regulator APEX1 (Homo sapiens) (UniProt P27695) (assay: qHTS Assay for Inhibitors of the Human Apurinic/apyrimidinic Endonuclease 1 (APE1)). Details: recombinant APE1, TAMRA/BHQ-2 abasic DNA cleavage fluorescence; series mostly up to 65.8 µM.
Method in brief: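 Measures dequenching upon AP-site incision of a 5'-TAMRA/3'-BHQ-2 THF-containing duplex, 50 nM; human APE1 0.75 nM after 15 min room-temperature exposure to compound; kinetic three-point read at one-minute spacing.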
Further: nearly all actives have a fitted effect of over 55% in size.
Potency means the concentration at half of the fitted maximal effect.

Structure (SMILES) | Potency
O=C(CNC(=S)N(Cc1ccccc1)Cc1ccccc1F)NCCc1ccc(Cl)cc1 | inconclusive: 50.1 µM [inhibitor, single point]
O=C(CSc1nnc(-c2ccc(S(=O)(=O)N3CCCC3)cc2)o1)NCc1ccco1 | inconclusive: 39.8 µM [inhibitor, single point]
COC(C[C@@H]1O[C@@H]1[C@H](O)COCc1ccccc1)OC | inconclusive: 8.91 µM [inhibitor, single point]
Cc1noc(C)c1S(=O)(=O)N1CCCC(C(=O)Nc2nccs2)C1 (stereo not given) | inconclusive: 11.2 µM [inhibitor, partial curve, poor fit]
CCN1C(=O)N/C(=C/c2ccc(C)o2)C1=O | inconclusive: 17.8 µM [inhibitor, partial curve, poor fit]
COc1cc2c(cc1OC)[C@@H]1Cc3cc4c(cc3[C@H](C2)N1C)OCO4 | inconclusive: 3.55 µM [inhibitor, single point]
C=CCNC(=O)NC(=O)CSc1nnc(C(F)(F)F)n1C | inconclusive: 39.8 µM [inhibitor, partial curve]
CCCCC/C=C\C/C=C\C/C=C\C/C=C\CCCCCC(=O)O | inactive
O=C(/C=C/c1ccc(O)c(O)c1)OC(Cc1ccc(O)c(O)c1)C(=O)O (stereo not given) | active: 10 µM and active: 1.26 µM
O=C(Nc1nc(-c2ccc(F)cc2)cs1)c1cccnc1 | inconclusive: 44.7 µM [inhibitor, single point]
CC(=O)C(N=Nc1ccccc1)(Sc1nnc(-c2ccccc2)n1-c1ccccc1)C(=O)Nc1ccccc1 (stereo not given) | inconclusive: 44.7 µM [inhibitor, single point]
Cc1nc(NC(=O)c2ccco2)sc1-c1csc(Nc2ccc(Cl)cc2Cl)n1 | inactive
COc1cc(/C=N/NC(N)=O)cc([N+](=O)[O-])c1O | inconclusive: 11.2 µM [inhibitor, partial curve, poor fit]
COc1cc(/C=N/NC(=O)C2COc3ccccc3O2)ccc1O (stereo not given) | inconclusive: 0.0447 µM [inhibitor, full curve]
COc1ccc(CNc2nc(NCc3ccc(OC)cc3)c3ncn(C(C)C)c3n2)cc1 | inconclusive: 44.7 µM [inhibitor, single point]
Cc1c(NC(=O)C(C)NCC2CCCO2)c(=O)n(-c2ccccc2)n1C (stereo not given) | inconclusive: 44.7 µM [inhibitor, single point]
CCC(Sc1ncccc1C(=O)OCCN1CCCC1=O)C(=O)NCc1ccco1 (stereo not given) | inconclusive: 22.4 µM [inhibitor, partial curve]
COc1ccc2c(c1)c(=O)c(C(=O)c1ccc(Cl)cc1)cn2CC(=O)Nc1ccc(F)cc1 | inconclusive: 2.82 µM [inhibitor, single point]
CCC(=O)n1nc(-c2cccnc2)nc1NCc1ccccc1 | inconclusive: 20 µM [inhibitor, partial curve, poor fit]
CCOC(=O)/C(C#N)=C/N=c1ccc(C)cn1C | inactive

3 entries from above in another layout:

| Structure (SMILES) | Potency |
| --- | --- |
| O=C(CNC(=S)N(Cc1ccccc1)Cc1ccccc1F)NCCc1ccc(Cl)cc1 | inconclusive: 50.1 µM [inhibitor, single point] |
| O=C(CSc1nnc(-c2ccc(S(=O)(=O)N3CCCC3)cc2)o1)NCc1ccco1 | inconclusive: 39.8 µM [inhibitor, single point] |
| COC(C[C@@H]1O[C@@H]1[C@H](O)COCc1ccccc1)OC | inconclusive: 8.91 µM [inhibitor, single point] |

(further entries)

Structure (SMILES) | Potency
CC(C)c1ccc(N2C(=O)/C(=C/N(C)C)SC2=S)cc1 | active: 28.2 µM
c1csc(-c2nc3ccccc3s2)c1 | inconclusive: 3.16 µM [inhibitor, single point]
c1ccc2c(c1)Cn1c-2nc2ccccc21 | inactive
COc1ccc(-c2cc(C(F)(F)F)nc(NCc3ccco3)n2)cc1OC | inactive
COc1cc(/C=C2\SC(=S)N(Nc3ncc(C(F)(F)F)cc3Cl)C2=O)ccc1O | inconclusive: 35.5 µM [inhibitor, single point]
CCCNC(=O)OC[C@@H]1O[C@H](CCO/N=C\c2ccc(C(=O)N3[C@H](c4ccc(C)cc4)[C@@H](C)CC[C@H]3C(=O)OC)cc2)C=C[C@@H]1Oc1ccc(OC)cc1 | inconclusive: 3.98 µM [inhibitor, single point]
Cc1ccc(-c2ccc(/C=N/NC(=O)c3ccccc3O)o2)cc1 | inconclusive: 0.0251 µM [inhibitor, full curve, poor fit]
CC(=O)Oc1ccc(-c2ccc(C(=O)O)cc2)cc1 | inconclusive: 5.62 µM [inhibitor, full curve]
COc1ccc2ccccc2c1C(=O)/C=C\c1ccoc1 | inconclusive: 39.8 µM [inhibitor, single point]
Cc1ccc(-c2sc(C)nc2CC(=O)O)cc1 | inconclusive: 10 µM [inhibitor, single point]
C=CCN1C[C@H](C(=O)N(CCCN(C)C)C(=O)NCC)C[C@@H]2c3cccc4[nH]cc(c34)C[C@H]21 | inactive
Cc1nnc(C)c2c(C)n(C(c3ccccc3)c3ccccc3)c(C)c12 | inconclusive: 28.2 µM [inhibitor, partial curve]
CN(Cc1ccccc1)C(=O)CCNS(=O)(=O)c1ccc2c(c1)oc(=O)n2C | inconclusive: 44.7 µM [inhibitor, single point]
CCN1C(C)=C(C(=O)OC)C(c2ccccc2)N2C(=O)[C@@]3(C(=O)OC)O[C@@]12C1C(=O)N(c2ccccc2)C(=O)C13 (stereo not given in full) | inconclusive: 5.01 µM [inhibitor, single point]
O=C(Nc1ccn(Cc2c(F)c(F)cc(F)c2F)n1)c1cccc(Cn2cc([N+](=O)[O-])cn2)c1 | inconclusive: 8.91 µM [inhibitor, partial curve]
Cn1c(=S)[nH]c2scc(-c3cccs3)c2c1=O | inconclusive: 39.8 µM [inhibitor, single point]
O=C1CS/C(=N\N=C\c2ccco2)N1c1ccccc1 | inconclusive: 35.5 µM [inhibitor, single point]
COC(=O)c1c(N2C(=O)CC(Sc3ccccc3C(=O)O)C2=O)sc2c1CCCC2 (stereo not given) | inconclusive: 0.891 µM [inhibitor, full curve, poor fit]
CC1=C(C(=O)N2CCOCC2)C(c2ccccc2F)NC(=O)N1 (stereo not given) | inconclusive: 8.91 µM [inhibitor, single point]
O=C(CSc1ccc([N+](=O)[O-])cc1)Nc1cccc(S(=O)(=O)Nc2ccccc2F)c1 | inconclusive: 31.6 µM [inhibitor, single point]
